The full ranking holds about 33,000 sequences; the median of “E-score (-0.5 to 0.5)” is about -0.0014, and the highest 2% start at about 0.25. The list shows a part of the results.
What follows are sequences tested against T1, Cad1 (UniProt P24813) (assay: PBM E-score (8-mer binding enrichment) (E-score (-0.5 to 0.5)); higher = stronger / more preferred TF binding). Settings: protein concentration: 100 nM; construct: GST-full length.
T1 sequence: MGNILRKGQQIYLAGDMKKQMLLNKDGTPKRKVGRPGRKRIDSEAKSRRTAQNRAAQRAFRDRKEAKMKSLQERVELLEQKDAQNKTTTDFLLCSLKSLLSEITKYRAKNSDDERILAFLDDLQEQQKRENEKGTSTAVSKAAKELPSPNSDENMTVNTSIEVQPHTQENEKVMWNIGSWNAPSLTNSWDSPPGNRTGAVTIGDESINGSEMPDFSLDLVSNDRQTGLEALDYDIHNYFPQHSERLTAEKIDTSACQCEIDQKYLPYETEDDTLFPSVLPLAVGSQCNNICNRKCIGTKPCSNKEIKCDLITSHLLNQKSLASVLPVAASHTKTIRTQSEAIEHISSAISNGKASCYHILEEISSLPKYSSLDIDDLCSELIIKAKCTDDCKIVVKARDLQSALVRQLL
In short: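 PURExpress in vitro transcription/translation supplied GST-tagged yeast transcription factors, either full-length or DNA-binding domain. Applied at about 100-200 nM to universal all-10-mer Agilent arrays double-stranded by primer extension, the bound protein was detected with fluorescent anti-GST. E-scores, modified Wilcoxon-Mann-Whitney statistics, were given by the Universal PBM Analysis Suite to ungapped eight-base words pooled with their reverse complements after masliner normalisation.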

| Sequence | PBM E-score |
| --- | --- |
| TCTCCAAA | -0.116 |
| ACTCATTC | 0.123 |
| GTATATTA | 0.115 |
| CGCTATCC | 0.0948 |
| AGGTCTAC | -0.108 |
| CGCGCCAA | -0.0117 |
| TGAAGGAA | 0.107 |
| ACGGGTCG | 0.0697 |
| ATATCACC | 0.151 |
| CGCATCAG | 0.125 |
| CCGCAACA | 0.06 |
| CCGTTCTA | 0.128 |
| ACATTGGA | -0.121 |
| ATGTAGCC | -0.273 |
| ACGAAGCT | 0.0162 |
| AGAGCCGC | 0.0524 |
| ATTTAATG | 0.213 |
| ATGATCAA | 0.2 |
| GGTCCTAC | -0.274 |
| ATCAACCA | -0.00508 |
| CCGAGCCG | -0.0389 |
| CCGGTTAC | 0.0987 |
| AGCGCTGA | 0.258 |
| CATGGCAG | -0.0124 |
| GCTGATCA | 0.0264 |

| Sequence | PBM E-score |
| --- | --- |
| TATTGAAA | 0.183 |
| ATTCTTGA | 0.143 |
| ATTGCCCG | 0.0525 |
| ACGAAACT | 0.147 |
| AGAGGGCA | -0.226 |
| GCGCCCAC | -0.0659 |
| ATAGCGAC | 0.00835 |
| ACATGTCT | 0.0177 |
| AAAGTGAG | 0.101 |
| ATTCGTCC | 0.208 |
| ATATACGA | 0.0213 |
| CGCAGCGC | 0.0162 |
| GAACCGCA | 0.0939 |
| AACCTAGA | -0.0213 |
| ATGACTGA | 0.0407 |
| AAGCAACG | 0.207 |
| CGCATTCA | 0.143 |
| GTCTCTTA | 0.0448 |
| CTAGTGGA | -0.227 |
| AATGCTAC | 0.0985 |
| GAGTTGCC | 0.135 |
| ACAATGCG | 0.0843 |
| ACAGTGTA | 0.079 |
| ACCCTTGA | 0.054 |
| CCCTCGAG | -0.101 |

| Sequence | PBM E-score |
| --- | --- |
| AGTTGCGA | 0.0659 |
| ACCTGCAG | -0.111 |
| AACTGTCA | -0.0317 |
| CATCTCGC | 0.018 |
| AGCTAGTC | 0.0904 |
| AGATGACG | 0.0256 |
| AGAGCGAC | -0.135 |
| AAAAACGC | 0.137 |
| CCTATGAG | -0.263 |
| AAGACGTC | -0.0151 |
| AAGATAAT | 0.104 |
| CCGCGGTC | -0.0125 |
| GCGGTCAA | 0.026 |
| GCCCTAGC | -0.114 |
| CATATTTA | 0.232 |
| AGTGGGGC | -0.235 |
| GAAGTGCA | -0.0106 |
| TCACGTCA | 0.171 |
| TTTGCAAA | 0.224 |
| GTCTAGCA | -0.00856 |
| ACGGTAAA | 0.0043 |
| ACTCCAAG | -0.0466 |
| TAAAGTGA | 0.0686 |
| GAACCAAA | -0.0432 |
| AGCATAAA | -0.0572 |

| Sequence | PBM E-score |
| --- | --- |
| AGCAGTCG | -0.227 |
| AAAGGTAT | -0.0876 |
| ACCGAAAT | 0.0484 |
| AGCCACCC | -0.214 |
| ACGTCCAC | -0.049 |
| AGCCCTTC | -0.197 |
| CAGCTGCA | 0.00474 |
| CAAGTCTC | -0.347 |
| CAACTAAG | 0.0724 |
| GCTGCGCC | -0.181 |
| GATAAGAA | 0.239 |
| TGAAGACA | -0.0649 |
| CGCGCCGA | 0.0775 |
| CCCGGCCA | -0.213 |
| AGCCGACT | -0.0453 |
| TCTGGGCA | -0.156 |
| ACAAACAG | 0.0175 |
| AGAACGAA | 0.0662 |
| AGCCGTAC | -0.0329 |
| CGAGCATC | 0.0837 |
| AATCTAGA | -0.0904 |
| CGGACCGC | -0.139 |
| GGTGCTCA | -0.128 |
| ATCTAACG | 0.0344 |
| AGAAGCAC | -0.238 |

| Sequence | PBM E-score |
| --- | --- |
| TGCCACCA | -0.256 |
| ACGTTAAG | 0.145 |
| ACTGATAG | -0.0327 |
| AGTAGGAC | -0.00349 |
| AGATCAGA | -0.168 |
| CGTTCTCC | -0.114 |
| ACCTAAGC | -0.00145 |
| CGGATACC | 0.0705 |
| AGGTTTCA | 0.133 |
| GAAGTGTC | 0.032 |
| ACTGAGTG | -0.0663 |
| CCTGCTGC | 0.039 |
| ACTAAGCA | 0.181 |
| ACGCACCA | 0.0756 |
| ATCAGAGA | -0.0164 |
| CATTCTAA | 0.085 |
| AATCACTC | 0.0658 |
| ACCCGCGT | -0.00317 |
| CATATACC | -0.0196 |
| GTTTCGCA | -0.0238 |
| GGGGCAGA | -0.2 |
| TACTATCA | 0.212 |
| CGATAGTA | 0.0416 |
| CGATTGAA | 0.026 |
| AGGCCACG | 0.0286 |

| Sequence | PBM E-score |
| --- | --- |
| TAGCGCGA | 0.211 |
| CTGTTTGC | 0.0855 |
| CTACATGA | -0.0554 |
| CTAGGCGA | -0.124 |
| GACTTTAC | 0.119 |
| ATTGTTCA | 0.107 |
| AGAAGGAA | -0.232 |
| AGCGTTAA | 0.0357 |
| ACGTGTTA | 0.17 |
| AGATAGCA | 0.0129 |
| ACGGGAAC | 0.0667 |
| CCGAAGAG | -0.0285 |
| GGGCGTGA | -0.136 |
| GCCGCTTA | 0.138 |
| ACCGAGAG | -0.0599 |
| AACGGACC | -0.0229 |
| AGCTGTCG | -0.0586 |
| CCAATGAG | -0.0921 |
| ACAAGTTC | 0.0636 |
| TATACAAA | 0.149 |
| GTCGACAA | 0.0867 |
| AGGCAAAA | 0.0512 |
| ATCACAGA | 0.116 |
| AATTACGC | 0.095 |
| CTGACGGC | -0.137 |

| Sequence | PBM E-score |
| --- | --- |
| GGAACTAA | 0.0336 |
| AGCCAGAT | -0.239 |
| GTCAGCAC | 0.261 |
| CTTGATAA | 0.227 |
| ACTCTGTC | -0.0235 |
| GCCACGAA | -0.0932 |
| ATACTTTC | 0.0272 |
| AAAACAGA | -0.011 |
| CGCTCGCA | 0.121 |
| CTTCCTAA | 0.0434 |
| CCGCACTA | 0.122 |
| CGTGGGAG | -0.109 |
| CCGAACCC | -0.254 |
| ACCCCCAT | -0.236 |
| ATATGTCC | 0.112 |
| CCCCAAAC | -0.26 |
| ACTCGAAG | -0.126 |
| CCCTCTCA | -0.293 |
| CCCGAGTA | 0.11 |
| TAATCCAA | 0.255 |
| CGCTACTA | 0.276 |
| GCCAAGTA | -0.13 |

Reference: the supplement of paper PMC3334620
